Article PMC5938705
No constants are given. Whether binding was seen depends on the method and setting. In cells and extracts the contact can be indirect. Some entries that bind do so weakly or less than the wild type.

The chains behind the UniProt entries cited, without tags or fusion partners.
UniProt P46937: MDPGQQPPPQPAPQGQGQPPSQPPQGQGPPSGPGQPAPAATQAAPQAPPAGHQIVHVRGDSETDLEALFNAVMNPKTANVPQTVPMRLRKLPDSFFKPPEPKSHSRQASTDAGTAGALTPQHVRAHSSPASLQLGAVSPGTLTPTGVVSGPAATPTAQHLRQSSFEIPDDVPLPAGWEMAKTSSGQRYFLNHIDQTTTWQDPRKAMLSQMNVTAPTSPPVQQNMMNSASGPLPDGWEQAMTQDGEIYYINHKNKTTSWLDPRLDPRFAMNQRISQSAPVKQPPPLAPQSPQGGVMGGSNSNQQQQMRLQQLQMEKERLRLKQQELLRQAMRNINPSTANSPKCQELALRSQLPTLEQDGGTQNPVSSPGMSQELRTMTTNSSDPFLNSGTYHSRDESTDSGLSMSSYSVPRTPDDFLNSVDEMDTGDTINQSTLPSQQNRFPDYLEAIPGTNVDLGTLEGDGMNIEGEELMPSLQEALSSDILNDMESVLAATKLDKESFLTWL
UniProt O96019: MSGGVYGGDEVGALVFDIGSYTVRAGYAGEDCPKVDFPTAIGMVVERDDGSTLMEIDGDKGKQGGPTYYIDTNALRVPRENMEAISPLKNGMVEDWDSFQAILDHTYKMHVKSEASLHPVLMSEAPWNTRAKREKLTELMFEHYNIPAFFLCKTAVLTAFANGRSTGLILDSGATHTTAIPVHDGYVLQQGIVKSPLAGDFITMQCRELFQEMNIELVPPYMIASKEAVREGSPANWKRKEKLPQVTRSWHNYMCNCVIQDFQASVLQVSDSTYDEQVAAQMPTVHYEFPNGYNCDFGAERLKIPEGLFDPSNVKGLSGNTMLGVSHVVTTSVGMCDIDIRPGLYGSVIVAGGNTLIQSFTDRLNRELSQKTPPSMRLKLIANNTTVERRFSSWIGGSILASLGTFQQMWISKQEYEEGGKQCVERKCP
UniProt Q9GZV5: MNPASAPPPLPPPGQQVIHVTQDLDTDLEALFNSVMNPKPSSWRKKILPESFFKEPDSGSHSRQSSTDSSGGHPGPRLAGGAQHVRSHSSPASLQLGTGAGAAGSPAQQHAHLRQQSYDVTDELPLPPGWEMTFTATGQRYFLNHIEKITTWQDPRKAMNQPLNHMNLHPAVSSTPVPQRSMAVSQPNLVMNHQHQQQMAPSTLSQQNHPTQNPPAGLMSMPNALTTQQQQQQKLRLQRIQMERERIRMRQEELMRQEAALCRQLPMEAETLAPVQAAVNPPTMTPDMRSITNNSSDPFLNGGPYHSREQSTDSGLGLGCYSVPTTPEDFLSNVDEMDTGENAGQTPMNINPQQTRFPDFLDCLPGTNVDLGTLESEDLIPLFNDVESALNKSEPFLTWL

Assays:
[1] = target: Yes-associated protein (YAP), endogenous (human (endogenous in U251 and U87MG)) (UniProt P46937); assay: co-IP; YAP IP (antibody against YAP) from lysates of cells transfected with increasing amounts of Flag-ACTL6A; western blot for β-TrCP; cell line not stated
[2] = target: Yes-associated protein (YAP), endogenous (human (endogenous in U251 and U87MG)) (UniProt P46937); assay: co-IP; endogenous proteins; IP with anti-YAP or anti-ACTL6A antibody (or IgG) and Protein A/G agarose from U251 and U87MG lysates in IP buffer, overnight at 4 °C; western blot
[3] = target: Actin-like 6A (ACTL6A), endogenous (human (endogenous in U251 and U87MG)) (UniProt O96019); assay: as above

Row | Substance | binding [3] | also measured
1 | ACTL6A-3xFlag (pcDNA3.1-ACTL6A-3xFlag) (from UniProt O96019 1-429) | – | binding [1]: binds
2 | Actin-like 6A (ACTL6A), endogenous (from UniProt O96019 1-429) | – | binding [2]: binds
3 | Yes-associated protein (YAP), endogenous (from UniProt P46937 1-504) | binds | –
4 | transcriptional coactivator with PDZ-binding motif (TAZ), endogenous (from UniProt Q9GZV5 1-400) | binds | –
